Laboratory results: PubChem BioAssay AID743121 (NCATS, 2013)
Purpose: 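Knock-downs that sensitise breast cancer cells to camptothecin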 (primary screen). Cells: MDA-MB-231 cells, a human breast cancer line. Reagent: single siRNA against human genes, 20 nM siRNA (0.8 pmol per well). Timing: 120 h (drug added 48 h after transfection, read 72 h later). Challenge: camptothecin 20 nM (about EC30) for 72 h; vehicle 0.1% DMSO in parallel plates. Detection: 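CellTiter-Glo ATP signal, scaled to control siRNA as percent viability; sensitisation given as log2 of untreated divided by camptothecin-treated viability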. Direction: log2 vehicle/camptothecin viability: higher = stronger sensitisation to camptothecin; viability with camptothecin and viability without drug: higher = more viable cells. Rule for the call: 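Each gene scored by redundant siRNA activity (RSA) over its individual siRNA ratios; a gene is called active at p < 0.001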.
The whole screen tested about 26,000 reagents; shown is a part drawn at random. 167 of all reagents (0.63%) count as active. 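Calls are per gene from RSA p-values that are not deposited; an individual active-marked siRNA can sensitise only weakly.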 The numbers tell different reagents against one gene apart.

Target gene | reagent | log2 vehicle/camptothecin viability | viability with camptothecin (% of control) | viability without drug (% of control) | outcome
DGKG (GeneID 1608) | 1 | -0.249 | 102 | 85.8 | inactive
DGKG (GeneID 1608) | 2 | -0.189 | 90.3 | 79.2 | inactive
DGKG (GeneID 1608) | 3 | -0.176 | 112 | 99.6 | inactive
DGKG (GeneID 1608) | 4 | -0.172 | 85.3 | 75.7 | inactive
LRRC4B (GeneID 94030) | 1 | -0.328 | 10.3 | 8.22 | inactive
LRRC4B (GeneID 94030) | 2 | 0.433 | 43.4 | 58.5 | inactive
LRRC4B (GeneID 94030) | 3 | -0.157 | 115 | 103 | inactive
LRRC4B (GeneID 94030) | 4 | -0.333 | 65.9 | 52.3 | inactive
AMH (GeneID 268) | 1 | -0.0373 | 85 | 82.8 | inactive
AMH (GeneID 268) | 2 | -0.354 | 27.3 | 21.4 | inactive
AMH (GeneID 268) | 3 | -0.401 | 34.2 | 25.9 | inactive
CCNE2 (GeneID 9134) | 1 | -0.104 | 105 | 97.7 | inactive
CCNE2 (GeneID 9134) | 2 | -0.207 | 55.1 | 47.8 | inactive
CCNE2 (GeneID 9134) | 3 | -0.402 | 68.8 | 52 | inactive
CYP20A1 (GeneID 57404) | 1 | 0.0706 | 36.7 | 38.5 | inactive
CYP20A1 (GeneID 57404) | 2 | 0.0473 | 89 | 92 | inactive
CYP20A1 (GeneID 57404) | 3 | 0.9 | 5.84 | 10.9 | inactive
CYP20A1 (GeneID 57404) | 4 | 0.0176 | 71.6 | 72.5 | inactive
ATP6V1B1 (GeneID 525) | 1 | -0.0634 | 66.7 | 63.8 | inactive
ATP6V1B1 (GeneID 525) | 2 | 0.0589 | 23.7 | 24.7 | inactive
ATP6V1B1 (GeneID 525) | 3 | -0.0509 | 75.7 | 73.1 | inactive
ATP6V1B1 (GeneID 525) | 4 | 0.295 | 52.2 | 64.1 | inactive
BEX3 (GeneID 27018) | 1 | -0.171 | 55.6 | 49.4 | inactive
BEX3 (GeneID 27018) | 2 | 0.251 | 54.5 | 64.9 | inactive
BEX3 (GeneID 27018) | 3 | -0.247 | 38.8 | 32.7 | inactive
BEX3 (GeneID 27018) | 4 | 0.0947 | 86.2 | 92 | inactive
CCNB3 (GeneID 85417) | 1 | -0.448 | 71.3 | 52.3 | inactive
CCNB3 (GeneID 85417) | 2 | 0.158 | 69.1 | 77.1 | inactive
CCNB3 (GeneID 85417) | 3 | 0.692 | 11.9 | 19.3 | inactive
CCNB3 (GeneID 85417) | 4 | -0.366 | 72.9 | 56.6 | inactive
NKD1 (GeneID 85407) | 1 | -0.241 | 90.6 | 76.7 | inactive
NKD1 (GeneID 85407) | 2 | -0.341 | 65.4 | 51.6 | inactive
NKD1 (GeneID 85407) | 3 | 0.127 | 90.3 | 98.6 | inactive
PFKFB4 (GeneID 5210) | 1 | -0.388 | 91.3 | 69.8 | inactive
PFKFB4 (GeneID 5210) | 2 | -0.263 | 85.2 | 71 | inactive
PFKFB4 (GeneID 5210) | 3 | -0.326 | 65.9 | 52.6 | inactive
PFKFB4 (GeneID 5210) | 4 | -0.414 | 96.7 | 72.6 | inactive
TRIM11 (GeneID 81559) | 1 | -0.212 | 72.1 | 62.2 | inactive
TRIM11 (GeneID 81559) | 2 | 0.718 | 38.4 | 63.1 | inactive
TRIM11 (GeneID 81559) | 3 | -0.509 | 85.1 | 59.8 | inactive
TRIM11 (GeneID 81559) | 4 | 0.238 | 42.6 | 50.3 | inactive

Copied from the entries so far for reference:
Target gene | reagent | log2 vehicle/camptothecin viability | viability with camptothecin (% of control) | viability without drug (% of control) | outcome
DGKG (GeneID 1608) | 3 | -0.176 | 112 | 99.6 | inactive
DGKG (GeneID 1608) | 4 | -0.172 | 85.3 | 75.7 | inactive
LRRC4B (GeneID 94030) | 1 | -0.328 | 10.3 | 8.22 | inactive
LRRC4B (GeneID 94030) | 2 | 0.433 | 43.4 | 58.5 | inactive
LRRC4B (GeneID 94030) | 3 | -0.157 | 115 | 103 | inactive
LRRC4B (GeneID 94030) | 4 | -0.333 | 65.9 | 52.3 | inactive
AMH (GeneID 268) | 1 | -0.0373 | 85 | 82.8 | inactive
AMH (GeneID 268) | 2 | -0.354 | 27.3 | 21.4 | inactive
AMH (GeneID 268) | 3 | -0.401 | 34.2 | 25.9 | inactive

Additional entries follow:
Target gene | reagent | log2 vehicle/camptothecin viability | viability with camptothecin (% of control) | viability without drug (% of control) | outcome
THPO (GeneID 7066) | 1 | 0.0776 | 82.7 | 87.3 | inactive
THPO (GeneID 7066) | 2 | 0.115 | 43.9 | 47.6 | inactive
THPO (GeneID 7066) | 3 | -0.433 | 93.5 | 69.2 | inactive
ATR (GeneID 545) | 1 | 0.258 | 87 | 104 | active
ATR (GeneID 545) | 2 | 0.694 | 52.9 | 85.6 | active
ATR (GeneID 545) | 3 | 0.906 | 29.4 | 55.2 | active
ATR (GeneID 545) | 4 | 2.46 | 7.6 | 41.7 | active
BRD4 (GeneID 23476) | 1 | -0.658 | 53.3 | 33.8 | inactive
BRD4 (GeneID 23476) | 2 | -0.454 | 82.9 | 60.5 | inactive
BRD4 (GeneID 23476) | 3 | -0.579 | 73.3 | 49.1 | inactive
BRD4 (GeneID 23476) | 4 | -0.535 | 88.4 | 61 | inactive
PRMT2 (GeneID 3275) | 1 | -0.308 | 114 | 92.1 | inactive
PRMT2 (GeneID 3275) | 2 | -0.0668 | 51.1 | 48.8 | inactive
PRMT2 (GeneID 3275) | 3 | -0.0459 | 95.1 | 92.1 | inactive
PRMT2 (GeneID 3275) | 4 | -2.74 | 73.3 | 11 | inactive
MTF2 (GeneID 22823) | 1 | -0.232 | 75.7 | 64.4 | inactive
MTF2 (GeneID 22823) | 2 | -0.181 | 97 | 85.6 | inactive
MTF2 (GeneID 22823) | 3 | -0.513 | 131 | 91.7 | inactive
MTF2 (GeneID 22823) | 4 | -0.266 | 110 | 91.8 | inactive
CCL16 (GeneID 6360) | 1 | -0.364 | 64.5 | 50.1 | inactive
CCL16 (GeneID 6360) | 2 | -0.0914 | 69.5 | 65.3 | inactive
CCL16 (GeneID 6360) | 3 | 0.284 | 62.5 | 76.1 | inactive
PF4 (GeneID 5196) | 1 | 0.282 | 101 | 122 | inactive
PF4 (GeneID 5196) | 2 | 0.526 | 41.7 | 60 | inactive
FAT1 (GeneID 2195) | 1 | -0.0577 | 112 | 107 | inactive
FAT1 (GeneID 2195) | 2 | -0.0849 | 106 | 99.7 | inactive
FAT1 (GeneID 2195) | 3 | -0.495 | 64 | 45.4 | inactive
FAT1 (GeneID 2195) | 4 | -0.0465 | 104 | 101 | inactive
